# Laboratory results reported in the supplement of paper PMC8728848.
# This is one part of the list.
# What was measured:
# Test in all cases: glycan array binding signal (z-score within array); higher = stronger binding
# Conditions in all cases: glycan notation: IUPAC condensed, linker removed
# Fuc(a1-2)Gal = molecular target: Fuc(a1-2)Gal
# Method in brief: (§1)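 The Consortium for Functional Glycomics database supplied 3228 glycan arrays, of which those lacking an available protein sequence were dropped. The binding signal, a within-array Z-score, was averaged across arrays of the same protein sequence and across linkers. Negative scores can be read as non-binding.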
# Fuc(a1-2)Gal(b1-3)GalNAc = molecular target: Fuc(a1-2)Gal(b1-3)GalNAc
# Method in brief: as §1
# [1] = molecular target: Fuc(a1-2)Gal(b1-3)GalNAc(a1-3)[Fuc(a1-2)]Gal(b1-4)Glc
# Method in brief: as §1
# [2] = molecular target: Fuc(a1-2)Gal(b1-3)GalNAc(a1-3)[Fuc(a1-2)]Gal(b1-4)GlcNAc
# Method in brief: as §1
# [3] = molecular target: Fuc(a1-2)Gal(b1-3)GalNAc(b1-3)Gal
# Method in brief: as §1
# [4] = molecular target: Fuc(a1-2)Gal(b1-3)GalNAc(b1-3)Gal(a1-4)Gal(b1-4)Glc
# Method in brief: as §1
# [5] = molecular target: Fuc(a1-2)Gal(b1-3)GalNAc(b1-4)[Neu5Ac(a2-3)]Gal(b1-4)Glc
# Method in brief: as §1
# Fuc(a1-2)Gal(b1-3)GlcNAc = molecular target: Fuc(a1-2)Gal(b1-3)GlcNAc
# Method in brief: as §1
# [6] = molecular target: Fuc(a1-2)Gal(b1-3)GlcNAc(b1-2)Man(a1-3)[Fuc(a1-2)Gal(b1-3)GlcNAc(b1-2)Man(a1-6)]Man(b1-4)GlcNAc(b1-4)GlcNAc
# Method in brief: as §1
# [7] = molecular target: Fuc(a1-2)Gal(b1-3)GlcNAc(b1-2)Man(a1-3)[Fuc(a1-2)Gal(b1-3)GlcNAc(b1-2)Man(a1-6)]Man(b1-4)GlcNAc(b1-4)[Fuc(a1-6)]GlcNAc
# Method in brief: as §1
# [8] = molecular target: Fuc(a1-2)Gal(b1-3)GlcNAc(b1-3)Gal(b1-4)Glc
# Method in brief: as §1
# [9] = molecular target: Fuc(a1-2)Gal(b1-3)GlcNAc(b1-3)GalNAc
# Method in brief: as §1
# [10] = molecular target: Fuc(a1-2)Gal(b1-3)GlcNAc(b1-3)[Fuc(a1-3)[Gal(b1-4)]GlcNAc(b1-6)]Gal(b1-4)Glc
# Method in brief: as §1
# [11] = molecular target: Fuc(a1-2)Gal(b1-3)GlcNAc(b1-3)[Gal(b1-4)GlcNAc(b1-6)]Gal(b1-4)Glc
# Method in brief: as §1
# [12] = molecular target: Fuc(a1-2)Gal(b1-3)GlcNAc(b1-3)[Neu5Ac(a2-6)Gal(b1-4)GlcNAc(b1-6)]Gal(b1-4)Glc
# Method in brief: as §1
# [13] = molecular target: Fuc(a1-2)Gal(b1-3)[Fuc(a1-4)]GlcNAc
# Method in brief: as §1
# [14] = molecular target: Fuc(a1-2)Gal(b1-3)[Fuc(a1-4)]GlcNAc(b1-2)Man(a1-3)[Fuc(a1-2)Gal(b1-3)[Fuc(a1-4)]GlcNAc(b1-2)Man(a1-6)]Man(b1-4)GlcNAc(b1-4)GlcNAc
# Method in brief: as §1
# [15] = molecular target: Fuc(a1-2)Gal(b1-3)[Fuc(a1-4)]GlcNAc(b1-3)[Fuc(a1-3)[Gal(b1-4)]GlcNAc(b1-6)]Gal(b1-4)Glc
# Method in brief: as §1
# [16] = molecular target: Fuc(a1-2)Gal(b1-3)[Fuc(a1-4)]GlcNAc(b1-3)[Gal(b1-4)GlcNAc(b1-6)]Gal(b1-4)Glc
# Method in brief: as §1
# Fuc(a1-2)Gal(b1-4)Glc = molecular target: Fuc(a1-2)Gal(b1-4)Glc
# Method in brief: as §1
# Fuc(a1-2)Gal(b1-4)Glc6S = molecular target: Fuc(a1-2)Gal(b1-4)Glc6S
# Method in brief: as §1
# Fuc(a1-2)Gal(b1-4)GlcNAc = molecular target: Fuc(a1-2)Gal(b1-4)GlcNAc
# Method in brief: as §1
# [17] = molecular target: Fuc(a1-2)Gal(b1-4)GlcNAc(b1-2)Man(a1-3)[Fuc(a1-2)Gal(b1-4)GlcNAc(b1-2)Man(a1-6)]Man(b1-4)GlcNAc(b1-4)GlcNAc
# Method in brief: as §1
# [18] = molecular target: Fuc(a1-2)Gal(b1-4)GlcNAc(b1-2)Man(a1-3)[Fuc(a1-2)Gal(b1-4)GlcNAc(b1-2)Man(a1-6)]Man(b1-4)GlcNAc(b1-4)[Fuc(a1-6)]GlcNAc
# Method in brief: as §1
# [19] = molecular target: Fuc(a1-2)Gal(b1-4)GlcNAc(b1-2)[Fuc(a1-2)Gal(b1-4)GlcNAc(b1-4)]Man(a1-3)[Fuc(a1-2)Gal(b1-4)GlcNAc(b1-2)Man(a1-6)]Man(b1-4)GlcNAc(b1-4)GlcNAc
# Method in brief: as §1
# [20] = molecular target: Fuc(a1-2)Gal(b1-4)GlcNAc(b1-3)Gal(b1-4)GlcNAc
# Method in brief: as §1
# [21] = molecular target: Fuc(a1-2)Gal(b1-4)GlcNAc(b1-3)Gal(b1-4)GlcNAc(b1-3)Gal(b1-4)GlcNAc
# Method in brief: as §1
# [22] = molecular target: Fuc(a1-2)Gal(b1-4)GlcNAc(b1-3)GalNAc
# Method in brief: as §1
# [23] = molecular target: Fuc(a1-2)Gal(b1-4)GlcNAc(b1-3)[Fuc(a1-2)Gal(b1-4)GlcNAc(b1-6)]GalNAc
# Method in brief: as §1
# [24] = molecular target: Fuc(a1-2)Gal(b1-4)GlcNAc6S
# Method in brief: as §1
# [25] = molecular target: Fuc(a1-2)Gal(b1-4)[Fuc(a1-3)]GlcNAc
# Method in brief: as §1
# [26] = molecular target: Fuc(a1-2)Gal(b1-4)[Fuc(a1-3)]GlcNAc(b1-2)Man(a1-3)[Fuc(a1-2)Gal(b1-4)[Fuc(a1-3)]GlcNAc(b1-2)Man(a1-6)]Man(b1-4)GlcNAc(b1-4)GlcNAc
# Method in brief: as §1
# [27] = molecular target: Fuc(a1-2)Gal(b1-4)[Fuc(a1-3)]GlcNAc(b1-2)[Fuc(a1-2)Gal(b1-4)[Fuc(a1-3)]GlcNAc(b1-4)]Man(a1-3)[Fuc(a1-2)Gal(b1-4)[Fuc(a1-3)]GlcNAc(b1-2)Man(a1-6)]Man(b1-4)GlcNAc(b1-4)GlcNAc
# Method in brief: as §1
# [28] = molecular target: Fuc(a1-2)Gal(b1-4)[Fuc(a1-3)]GlcNAc(b1-3)Gal(b1-4)[Fuc(a1-3)]GlcNAc
# Method in brief: as §1
# [29] = molecular target: Fuc(a1-2)Gal(b1-4)[Fuc(a1-3)]GlcNAc(b1-3)Gal(b1-4)[Fuc(a1-3)]GlcNAc(b1-3)Gal(b1-4)[Fuc(a1-3)]GlcNAc
# Method in brief: as §1
# [30] = molecular target: Fuc(a1-2)Gal(b1-4)[Fuc(a1-3)]GlcNAc(b1-3)GalNAc
# Method in brief: as §1
# Fuc(a1-2)Gal6S(b1-4)Glc = molecular target: Fuc(a1-2)Gal6S(b1-4)Glc
# Method in brief: as §1
# [31] = molecular target: Fuc(a1-2)Gal6S(b1-4)Glc6S
# Method in brief: as §1
# [32] = molecular target: Fuc(a1-2)Gal6S(b1-4)GlcNAc
# Method in brief: as §1
# Fuc(a1-2)[Gal(a1-3)]Gal = molecular target: Fuc(a1-2)[Gal(a1-3)]Gal
# Method in brief: as §1
# [33] = molecular target: Fuc(a1-2)[Gal(a1-3)]Gal(b1-3)GalNAc
# Method in brief: as §1
# [34] = molecular target: Fuc(a1-2)[Gal(a1-3)]Gal(b1-3)GlcNAc
# Method in brief: as §1
# [35] = molecular target: Fuc(a1-2)[Gal(a1-3)]Gal(b1-3)GlcNAc(b1-2)Man(a1-3)[Fuc(a1-2)[Gal(a1-3)]Gal(b1-3)GlcNAc(b1-2)Man(a1-6)]Man(b1-4)GlcNAc(b1-4)GlcNAc
# Method in brief: as §1
# [36] = molecular target: Fuc(a1-2)[Gal(a1-3)]Gal(b1-3)GlcNAc(b1-2)Man(a1-3)[Fuc(a1-2)[Gal(a1-3)]Gal(b1-3)GlcNAc(b1-2)Man(a1-6)]Man(b1-4)GlcNAc(b1-4)[Fuc(a1-6)]GlcNAc
# Method in brief: as §1
# [37] = molecular target: Fuc(a1-2)[Gal(a1-3)]Gal(b1-3)GlcNAc(b1-3)GalNAc
# Method in brief: as §1
binder,measurement,setting,value
"RetS (Pseudomonas aeruginosa), Q9HUV7 (protein) MVRLRIAIGLLVSFLLLLLGPMSPAVADDAGVSSVPLQTTATTPSANQNWRLLRDESAQLRIADVLQRKEQFRPLAKRSFIFPASPQAVWLQVQLPAQKVPSWLWIFAPRVQYLDYYLVQDGQLVRDQHTGESRPFQERPLPSRSYLFSLPVDGKPMTLYVRMTSNHPLMAWFDQIDEAGLVGLEKPAYAFGMLLGGMLLLLMYNLIRFAYSRSASSLWLAAVHAALAVCAAANLGLVAFWLPGLKFNQSLTADLGALGAAVSLLWFACSFFRGTAESRLNRLLQGEALLILAVGAIIAFTQQLWFSWLIYLLVILSSLSVPLIAAWHWYRGYQPARLIVAGMIVFNAGFMVFLPVLFGTKQLDPGWLVLGVFSFATLAGLVLSVSLTERQRLIQQLNLQQRTSEAAHTAELQTKAEFLAKISHEIRTPMNGVLGMTELLLGTPLSAKQRDYVQTIHSAGNELLTLINEILDISKLESGQIELDEVQFDLNALIEDCLDIFRVKAEQQRIELISFTQPQVPRVIGGDPTRLRQVVLSLLDNAFKQTEEGEILLVVALDDQGETPRLRIAVQDSGHPFDAKEREALLTAELHSGDFLSASKLGSHLGLIIARQLVRLMGGEFGIQSGSSQGTTLSLTLPLDPQQLENPTADLDGPLQGARLLVVDDNETCRKVLVQQCSGWGLNVSAVSSGKEALAQLRTKAHLREYFDVVLLDQDMPGMTGMQLAAKIKEDPNLNHDILLIMLTGISNAPSKIIARNAGIKRILAKPVAGYTLKATLADELAQRGVSGVTNYLQPAKEAQAPSLPSDFRILVAEDNSISTKVIRGMLNKLNLQPDTASNGQEALSAMKATQYDLVLMDCEMPVLDGFSATEQLRAWEAHEQRPHTPVVALTAHILSEHKERARLVGMDGHMAKPVELSQLRELIAYWVGERDRRRQGDALPS",glycan array binding signal (z-score),Fuc(a1-2)Gal,1.84
same,glycan array binding signal (z-score),Fuc(a1-2)Gal(b1-3)GalNAc,-0.512
same,glycan array binding signal (z-score),[1],-0.369
same,glycan array binding signal (z-score),[2],0.137
same,glycan array binding signal (z-score),[3],-1.25
same,glycan array binding signal (z-score),[4],-1.04
same,glycan array binding signal (z-score),[5],0.564
same,glycan array binding signal (z-score),Fuc(a1-2)Gal(b1-3)GlcNAc,0.454
same,glycan array binding signal (z-score),[6],0.267
same,glycan array binding signal (z-score),[7],0.997
same,glycan array binding signal (z-score),[8],0.311
same,glycan array binding signal (z-score),[9],-0.701
same,glycan array binding signal (z-score),[10],-1.12
same,glycan array binding signal (z-score),[11],-0.358
same,glycan array binding signal (z-score),[12],1.68
same,glycan array binding signal (z-score),[13],0.195
same,glycan array binding signal (z-score),[14],0.718
same,glycan array binding signal (z-score),[15],0.276
same,glycan array binding signal (z-score),[16],1.19
same,glycan array binding signal (z-score),Fuc(a1-2)Gal(b1-4)Glc,-0.194
same,glycan array binding signal (z-score),Fuc(a1-2)Gal(b1-4)Glc6S,0.411
same,glycan array binding signal (z-score),Fuc(a1-2)Gal(b1-4)GlcNAc,-0.003
same,glycan array binding signal (z-score),[17],0.8
same,glycan array binding signal (z-score),[18],-1.24
same,glycan array binding signal (z-score),[19],-0.527
same,glycan array binding signal (z-score),[20],-0.677
same,glycan array binding signal (z-score),[21],0.275
same,glycan array binding signal (z-score),[22],0.495
same,glycan array binding signal (z-score),[23],0.163
same,glycan array binding signal (z-score),[24],0.503
same,glycan array binding signal (z-score),[25],-0.272
same,glycan array binding signal (z-score),[26],-1.23
same,glycan array binding signal (z-score),[27],0.111
same,glycan array binding signal (z-score),[28],0.036
same,glycan array binding signal (z-score),[29],-0.117
same,glycan array binding signal (z-score),[30],1.16
same,glycan array binding signal (z-score),Fuc(a1-2)Gal6S(b1-4)Glc,-0.311
same,glycan array binding signal (z-score),[31],2.62
same,glycan array binding signal (z-score),[32],0.722
same,glycan array binding signal (z-score),Fuc(a1-2)[Gal(a1-3)]Gal,-0.377
same,glycan array binding signal (z-score),[33],0.263
same,glycan array binding signal (z-score),[34],-0.371
same,glycan array binding signal (z-score),[35],0.637
same,glycan array binding signal (z-score),[36],2.79
same,glycan array binding signal (z-score),[37],-0.488
